According to publication PMC8853643:
Results are given in words; binding and its absence hold for the method and conditions named. Binding seen in cells or lysates may run through a third protein. Some binding calls cover weakened binding; strength is not graded here. Where a sequence is shown, tags or fusion partners need not be part of it.

By UniProt entry, the sequences of proteins in these tests, tags left out. Residues count along the entry.
UniProt Q99IB8, residues 814-1030: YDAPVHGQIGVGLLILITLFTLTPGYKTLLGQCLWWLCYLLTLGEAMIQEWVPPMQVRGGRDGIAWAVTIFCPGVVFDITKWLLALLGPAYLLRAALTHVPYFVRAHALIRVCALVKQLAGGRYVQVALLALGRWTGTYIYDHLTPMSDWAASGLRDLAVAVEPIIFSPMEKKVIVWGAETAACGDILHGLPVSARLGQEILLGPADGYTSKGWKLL
UniProt P27958, residues 810-1026: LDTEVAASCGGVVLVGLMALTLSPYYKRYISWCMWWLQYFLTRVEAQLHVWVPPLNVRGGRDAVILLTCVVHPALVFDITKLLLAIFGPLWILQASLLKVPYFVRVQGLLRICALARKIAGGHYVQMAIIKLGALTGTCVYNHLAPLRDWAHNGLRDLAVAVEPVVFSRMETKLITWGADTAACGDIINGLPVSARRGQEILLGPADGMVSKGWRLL

Key:
[1] = molecular target: Flag-tagged HCV genotype 2a JFH1 NS2 (Hepatitis C virus genotype 2a, strain JFH1) (UniProt Q99IB8); assay: co-IP; 293T cells co-transfected with HA-SPCS1 and Flag-tagged H77- or JFH1-NS2; Flag co-immunoprecipitation
[2] = molecular target: Flag-tagged HCV genotype 1a H77 NS2 (Hepatitis C virus genotype 1a, strain H77) (UniProt P27958); assay: as above

B1: HA-tagged signal peptidase complex subunit 1 (SPCS1) (protein, UniProt Q9Y6A9 1-169)
chain: MARGGDTGCTGPSETSASGAAAIALPGLEGPATDAQCQTLPLTVLKSRSPSPRSLPPALSCPPPQPAMLEHLSSLPTQMDYKGQKLAEQMFQGIILFSAIVGFIYGYVAEQFGWTVYIVMAGFAFSCLLTLPPWPIYRRHPLKWLPVQESSTDDKKPGERKIKRHAKNN
binding [1]: binds | binding [2]: binds
